According to PMC8543820:
No constants are given. Whether binding was seen depends on the method and setting. In cells and extracts the contact can be indirect. Some binding calls cover weakened binding; strength is not graded here.

By UniProt entry, the sequences of proteins in these tests, tags left out. Where a name states a change or a piece, a line headed by the entry shows the natural chain unless it says otherwise.
UniProt P04198: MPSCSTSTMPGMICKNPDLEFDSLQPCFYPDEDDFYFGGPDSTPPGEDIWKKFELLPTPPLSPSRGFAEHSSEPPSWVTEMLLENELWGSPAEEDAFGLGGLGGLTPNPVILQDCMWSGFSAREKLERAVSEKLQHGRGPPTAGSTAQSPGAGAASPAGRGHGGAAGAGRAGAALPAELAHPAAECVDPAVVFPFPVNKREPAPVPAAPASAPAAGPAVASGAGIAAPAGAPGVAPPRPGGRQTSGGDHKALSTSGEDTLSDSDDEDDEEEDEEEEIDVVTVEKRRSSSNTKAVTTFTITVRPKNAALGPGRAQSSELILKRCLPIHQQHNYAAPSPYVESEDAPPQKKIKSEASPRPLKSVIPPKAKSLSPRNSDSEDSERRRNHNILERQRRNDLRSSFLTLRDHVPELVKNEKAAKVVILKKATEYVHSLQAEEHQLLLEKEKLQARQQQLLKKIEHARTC
UniProt P61244: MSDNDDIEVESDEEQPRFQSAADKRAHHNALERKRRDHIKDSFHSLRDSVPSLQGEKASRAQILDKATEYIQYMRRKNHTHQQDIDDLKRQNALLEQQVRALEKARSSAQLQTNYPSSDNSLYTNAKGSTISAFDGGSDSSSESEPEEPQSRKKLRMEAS

What was measured:
[1] = target: HA-N-MYC (wild-type) (human) (UniProt P04198); experiment: co-IP; HEK293 transiently transfected with tagged expression vectors, doxycycline 48 h; lysis in 20 mM HEPES pH 7.9, 180 mM NaCl, 1.5 mM MgCl2, 10% glycerol, 0.2% Nonidet P40, benzonase; IP with HA-coupled magnetic beads or FLAG-coupled agarose beads at 4 °C; Western blot
HA-N-MYC-P44L (human) [2] = target: HA-N-MYC-P44L (human) (UniProt P04198); experiment: as above
[3] = target: HA-N-MYC (wild-type) (human) (UniProt P04198); experiment: co-IP; immunoprecipitates of HA-N-MYC from stably transfected HEK293 pSB-ETiE-HA-MYCN-WT or -P44L lysates for the PTM analysis (RIPA buffer); immunoblot for MAX
HA-N-MYC-P44L (human) [4] = target: HA-N-MYC-P44L (human) (UniProt P04198); experiment: as above

Row | Substance | binding [1] | binding (HA-N-MYC-P44L (human) [2]) | binding [3] | binding (HA-N-MYC-P44L (human) [4])
1 | FLAG-MAX (wild-type) (from UniProt P61244 1-160) | binds | binds | – | –
2 | FLAG-MAX-R60Q (from UniProt P61244 1-160) | binds | – | – | –
3 | MAX (endogenous) (from UniProt P61244 1-160) | – | – | binds | binds
